# Data: US20160201132A1, “GENE EXPRESSION BIOMARKERS OF LAQUINIMOD RESPONSIVENESS” (Teva Pharmaceutical Industries Ltd., priority 2013, published 2016)
# The source gives many values for each of these; only a part stands here.
# System: PBMC of RRMS patients
# Test: Gene expression microarray analysis (HG-U133A-2) of PBMC from RRMS patients treated with LAQ, ancillary study to ALLEGRO
# Type: in vivo, human
# Source text: The goal of this ancillary study was to characterize gene expression changes and corresponding biological mechanisms induced in PBMC of RRMS patients by LAQ treatment. According to ALLEGRO clinical trial inclusion criteria, 25 patients were randomly assigned to receive LAQ (n=13, age 38.8±2.3 years, female/male ratio: 8/5) or placebo (n=12, age 37.2±3.4 years, female/male ratio: 8/4).
# Peripheral blood samples were obtained from RRMS patients at baseline before start of LAQ treatment or placebo, after 0, 1, 6 and 24 month of treatment (visit 0, 1, 6 and 7 according to ALLEGRO clinical trial protocol correspondently) for gene microarray analysis.
# Briefly, 1) Peripheral blood mononuclear cells (PBMC) were obtained from RRMS patients that participated in ALLEGRO and were treated daily with 0.6 mg LAQ or placebo. PBMC were subjected for gene expression analysis (HU-133A-2-Affymatrix arrays) at baseline and at 1 and 6 months of LAQ treatment; 2) Data was analyzed by Partek Genomics Solution software. Most informative genes (MIGs) were defined as those that differentiated between groups with p<0.01. Gene functional annotation, enrichment and pathway analysis were performed by Ingenuity software. For each time point, genes that changed in placebo group were excluded from further analysis; and 3) Verification of LAQ related mechanism was performed by Western blot.
# PBMC were extracted from 15 ml peripheral blood, separated by Ficoll-Hypaque gradient. Total RNA was extracted using both Trizol (Invitrogen, USA) and Phase-Lock-Gel columns (Eppendorf, Germany) including a DNase digestion step. RNA integrity was assessed by RNA Experion automated electrophoresis system (Bio-Rad Laboratories, Hercules, Calif.).
# Probe synthesis using 3 μg total RNA, hybridization, detection, and scanning was performed according to the standard Affymetrix, Inc. USA protocols; cDNA was synthesized using the Two-Cycle cDNA Synthesis Kit (Affymetrix, Inc., USA), and in-vitro transcription performed with the GeneChip IVT Labeling Kit (Affymetrix, Inc., USA). The biotin-labeled IVT-RNA was hybridized to HG-U133A-2 arrays containing 18,400 gene transcripts, each corresponding to 14,500 well-annotated human genes, washed in a GeneChip Fluidics Station 450 (Hewlett Packard, USA, GeneArray-™ scanner G2500A) and scanned according to the manufacturer's protocol (Affymetrix, Inc., USA).
# Data analysis was performed on Partek Genomics Solution software (www.partek.com; Partek Incorporated, St. Louis, Mo.). Expression values were computed from raw CEL files by applying the Robust Multi-Chip Average (RMA) background correction algorithm. RMA correction included: 1) values background correction; 2) quintile normalization; 3) log 2 transformation; and 4) median polish summarization. The ANOVA, Repeated Measures and correlation analysis implicated in Partek software ware applied to evaluate LAQ effects. Most informative genes MIGs were defined as those that differentiated between experimental groups with p<0.01. All p-values were calculated for False Discovery Rate (FDR) multiple test correction at p=0.05.
# Additionally, significance of individual genes was tested by parametric T-test and non parametric Mann-Whitney test using Bootstrapping approach based on repeated permutations of the data with 5% FDR for multiple testing.
# Gene functional annotation, enrichment, and pathway analyses to identify the leading biological pathways that operated under LAQ treatment were performed by Ingenuity Pathways Analysis software (www.ingenuity.com).
# ANOVA analysis was used to compare PBMC gene expression after 1, 6 or 24 month of LAQ treatment with baseline gene expression.
# For each time point inventors performed analysis source of variation in dataset. (FIG. 1). Age, gender and batch effects were considered as confounders regarding LAQ or Placebo related changes. For each time point genes associated with Placebo effect were evaluated and excluded from further analysis. […]
smiles,measurement,setting,value
"CCN(C(=O)c1c(O)c2c(Cl)cccc2n(C)c1=O)c1ccccc1 [LAQ, 5-chloro-N-ethyl-4-hydroxy-1-methyl-2-oxo-N-phenyl-1,2-dihydroquinoline-3-carboxamide]",Fold-Change (1.0 vs. 0.0),"37966_at PARVB, one month of treatment vs baseline",−1.451
same,Fold-Change (1.0 vs. 0.0),"40687_at GJA4, one month of treatment vs baseline",−1.146
same,Fold-Change (1.0 vs. 0.0),"61297_at CASKIN2, one month of treatment vs baseline",−1.11
same,Fold-Change (1.0 vs. 0.0),"200833_s_at hCG_1757335 /// RAP1B, one month of treatment vs baseline",−1.129
same,Fold-Change (1.0 vs. 0.0),"200844_s_at PRDX6, one month of treatment vs baseline",−1.145
same,Fold-Change (1.0 vs. 0.0),"200845_s_at PRDX6, one month of treatment vs baseline",−1.2308
same,Fold-Change (1.0 vs. 0.0),"200885_at RHOC, one month of treatment vs baseline",−1.284
same,Fold-Change (1.0 vs. 0.0),"200905_x_at HLA-E, one month of treatment vs baseline",−1.071
same,Fold-Change (1.0 vs. 0.0),"201029_s_at CD99, one month of treatment vs baseline",−1.128
same,Fold-Change (1.0 vs. 0.0),"201124_at ITGB5, one month of treatment vs baseline",−1.252
same,Fold-Change (1.0 vs. 0.0),"201280_s_at DAB2, one month of treatment vs baseline",−1.644
same,Fold-Change (1.0 vs. 0.0),"201528_at RPA1, one month of treatment vs baseline",−1.2309
same,Fold-Change (1.0 vs. 0.0),"201616_s_at CALD1, one month of treatment vs baseline",−1.484
same,Fold-Change (1.0 vs. 0.0),"201885_s_at CYB5R3, one month of treatment vs baseline",−1.153
same,Fold-Change (1.0 vs. 0.0),"201904_s_at CTDSPL, one month of treatment vs baseline",−1.514
same,Fold-Change (1.0 vs. 0.0),"202332_at CSNK1E, one month of treatment vs baseline",−1.089
same,Fold-Change (1.0 vs. 0.0),"202466_at POLS, one month of treatment vs baseline",−1.101
same,Fold-Change (1.0 vs. 0.0),"202501_at MAPRE2, one month of treatment vs baseline",−1.123
same,Fold-Change (1.0 vs. 0.0),"202555_s_at MYLK, one month of treatment vs baseline",−1.592
same,Fold-Change (1.0 vs. 0.0),"202573_at CSNK1G2, one month of treatment vs baseline",−1.111
same,Fold-Change (1.0 vs. 0.0),"202619_s_at PLOD2, one month of treatment vs baseline",−1.289
same,Fold-Change (1.0 vs. 0.0),"202620_s_at PLOD2, one month of treatment vs baseline",−1.26
same,Fold-Change (1.0 vs. 0.0),"202708_s_at HIST2H2BE, one month of treatment vs baseline",−1.55
same,Fold-Change (1.0 vs. 0.0),"202774_s_at SFRS8, one month of treatment vs baseline",−1.098
same,Fold-Change (1.0 vs. 0.0),"202778_s_at ZMYM2, one month of treatment vs baseline",−1.127
same,Fold-Change (1.0 vs. 0.0),"202838_at FUCA1, one month of treatment vs baseline",1.564
same,Fold-Change (1.0 vs. 0.0),"202974_at MPP1, one month of treatment vs baseline",−1.37
same,Fold-Change (1.0 vs. 0.0),"203180_at ALDH1A3, one month of treatment vs baseline",−1.167
same,Fold-Change (1.0 vs. 0.0),"203414_at MMD, one month of treatment vs baseline",−1.419
same,Fold-Change (1.0 vs. 0.0),"203896_s_at PLCB4, one month of treatment vs baseline",−1.139
same,Fold-Change (1.0 vs. 0.0),"203998_s_at SYT1, one month of treatment vs baseline",−1.135
same,Fold-Change (1.0 vs. 0.0),"204000_at GNB5, one month of treatment vs baseline",−1.195
same,Fold-Change (1.0 vs. 0.0),"204187_at GMPR, one month of treatment vs baseline",−1.473
same,Fold-Change (1.0 vs. 0.0),"204196_x_at PKNOX1, one month of treatment vs baseline",−1.117
same,Fold-Change (1.0 vs. 0.0),"204328_at TMC6, one month of treatment vs baseline",−1.084
same,Fold-Change (1.0 vs. 0.0),"204466_s_at SNCA, one month of treatment vs baseline",−1.562
same,Fold-Change (1.0 vs. 0.0),"204467_s_at SNCA, one month of treatment vs baseline",−1.476
same,Fold-Change (1.0 vs. 0.0),"204486_at (gene symbol not given), one month of treatment",−1.185
same,Fold-Change (1.0 vs. 0.0),"204597_x_at STC1, one month of treatment vs baseline",−1.144
same,Fold-Change (1.0 vs. 0.0),"204627_s_at ITGB3, one month of treatment vs baseline",−1.9911
same,Fold-Change (1.0 vs. 0.0),"204629_at PARVB, one month of treatment vs baseline",−1.275
same,Fold-Change (1.0 vs. 0.0),"204993_at GNAZ, one month of treatment vs baseline",−1.478
same,Fold-Change (1.0 vs. 0.0),"205128_x_at PTGS1, one month of treatment vs baseline",−1.543
same,Fold-Change (1.0 vs. 0.0),"205221_at HGD, one month of treatment vs baseline",−1.53
same,Fold-Change (1.0 vs. 0.0),"205426_s_at HIP1, one month of treatment vs baseline",−1.142
same,Fold-Change (1.0 vs. 0.0),"205434_s_at AAK1, one month of treatment vs baseline",−1.0984
same,Fold-Change (1.0 vs. 0.0),"205754_at F2, one month of treatment vs baseline",−1.144
same,Fold-Change (1.0 vs. 0.0),"205870_at BDKRB2, one month of treatment vs baseline",−1.141
same,Fold-Change (1.0 vs. 0.0),"206110_at (no gene symbol), one month of treatment vs baseline",−1.796
same,Fold-Change (1.0 vs. 0.0),"206167_s_at ARHGAP6, one month of treatment vs baseline",−1.768
same,Fold-Change (1.0 vs. 0.0),"206176_at BMP6, one month of treatment vs baseline",−1.53
same,Fold-Change (1.0 vs. 0.0),"206204_at GRB14, one month of treatment vs baseline",−1.8
same,Fold-Change (1.0 vs. 0.0),"206655_s_at GP1BB /// SEPT5, one month of treatment vs baseline",−1.814
same,Fold-Change (1.0 vs. 0.0),"206779_s_at ASMT, one month of treatment vs baseline",−1.133
same,Fold-Change (1.0 vs. 0.0),"207046_at HIST2H4A /// HIST2H4B, one month of treatment vs baseline",−1.237
same,Fold-Change (1.0 vs. 0.0),"207156_at HIST1H2AG, one month of treatment vs baseline",−1.674
same,Fold-Change (1.0 vs. 0.0),"207397_s_at HOXD13, one month of treatment vs baseline",−1.115
same,Fold-Change (1.0 vs. 0.0),"207523_at C6orf10, one month of treatment vs baseline",−1.111
same,Fold-Change (1.0 vs. 0.0),"207550_at MPL, one month of treatment vs baseline",−1.891
same,Fold-Change (1.0 vs. 0.0),"207554_x_at TBXA2R, one month of treatment vs baseline",−1.287
same,Fold-Change (1.0 vs. 0.0),"207558_s_at PITX2, one month of treatment vs baseline",−1.103
same,Fold-Change (1.0 vs. 0.0),"207745_at CABP2, one month of treatment vs baseline",−1.131
same,Fold-Change (1.0 vs. 0.0),"207799_x_at (no gene symbol), one month of treatment vs baseline",−1.204
same,Fold-Change (1.0 vs. 0.0),"207808_s_at PROS1, one month of treatment vs baseline",−1.964
same,Fold-Change (1.0 vs. 0.0),"207827_x_at SNCA, one month of treatment vs baseline",−1.353
same,Fold-Change (1.0 vs. 0.0),"207963_at C6orf54, one month of treatment vs baseline",−1.151
same,Fold-Change (1.0 vs. 0.0),"208327_at CYP2A13, one month of treatment vs baseline",−1.149
same,Fold-Change (1.0 vs. 0.0),"208343_s_at NR5A2, one month of treatment vs baseline",−1.117
same,Fold-Change (1.0 vs. 0.0),"208403_x_at MAX, one month of treatment vs baseline",−1.294
same,Fold-Change (1.0 vs. 0.0),"208490_x_at HIST1H2BF, one month of treatment vs baseline",−1.435
same,Fold-Change (1.0 vs. 0.0),"208506_at HIST1H3F, one month of treatment vs baseline",−1.131
same,Fold-Change (1.0 vs. 0.0),"208523_x_at HIST1H2BI, one month of treatment vs baseline",−1.475
same,Fold-Change (1.0 vs. 0.0),"208527_x_at HIST1H2BE, one month of treatment vs baseline",−1.415
same,Fold-Change (1.0 vs. 0.0),"208601_s_at TUBB1, one month of treatment vs baseline",−1.842
same,Fold-Change (1.0 vs. 0.0),"208690_s_at PDLIM1, one month of treatment vs baseline",−1.321
same,Fold-Change (1.0 vs. 0.0),"208750_s_at ARF1, one month of treatment vs baseline",−1.102
same,Fold-Change (1.0 vs. 0.0),"208752_x_at NAP1L1, one month of treatment vs baseline",−1.134
same,Fold-Change (1.0 vs. 0.0),"208753_s_at NAP1L1, one month of treatment vs baseline",−1.221
same,Fold-Change (1.0 vs. 0.0),"208786_s_at MAP1LC3B, one month of treatment vs baseline",−1.148
same,Fold-Change (1.0 vs. 0.0),"208791_at CLU, one month of treatment vs baseline",−1.776
same,Fold-Change (1.0 vs. 0.0),"208792_s_at CLU, one month of treatment vs baseline",−1.795
